According to US9457040B2, “Effective treatment of esophageal adenocarcinoma using triciribine and related compounds” (University of South Florida, priority 2007, dated 2016):
For at least one compound, name, drawing or mass did not settle the structure.

Experiments:
PDK1 = target: T1, PDK1 (Homo sapiens, UniProt O15530); assay: PDK1 autophosphorylation at serine-241 in HEK293 cells; assay type: cell-based; settings: Myc-PDK1, EGF stimulation
T1 construct: purchased Upstate Biotechnology Inc
T1 sequence (O15530 1-556): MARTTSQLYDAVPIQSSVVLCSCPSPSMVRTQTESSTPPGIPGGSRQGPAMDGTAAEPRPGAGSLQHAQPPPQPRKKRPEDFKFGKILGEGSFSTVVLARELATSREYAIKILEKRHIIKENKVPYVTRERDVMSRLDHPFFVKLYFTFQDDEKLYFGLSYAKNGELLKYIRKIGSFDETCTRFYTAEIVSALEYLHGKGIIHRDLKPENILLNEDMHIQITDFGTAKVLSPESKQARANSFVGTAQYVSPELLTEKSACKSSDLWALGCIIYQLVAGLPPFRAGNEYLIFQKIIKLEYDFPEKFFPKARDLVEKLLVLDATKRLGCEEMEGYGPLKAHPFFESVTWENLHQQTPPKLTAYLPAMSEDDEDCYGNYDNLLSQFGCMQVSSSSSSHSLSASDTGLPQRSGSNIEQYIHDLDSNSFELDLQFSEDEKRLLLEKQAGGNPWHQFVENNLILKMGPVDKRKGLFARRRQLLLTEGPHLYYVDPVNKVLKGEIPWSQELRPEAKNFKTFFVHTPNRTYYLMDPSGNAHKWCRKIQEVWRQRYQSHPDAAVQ

SGK = target: T2, SGK (Homo sapiens, UniProt O00141); assay: In vitro SGK kinase assay of HA-SGK immunoprecipitates; assay type: cell-based; settings: HEK293, HA-SGK; MBP substrate
T2 construct: expressed in transfected cells; host or cells: HEK293
T2 sequence (O00141 1-431): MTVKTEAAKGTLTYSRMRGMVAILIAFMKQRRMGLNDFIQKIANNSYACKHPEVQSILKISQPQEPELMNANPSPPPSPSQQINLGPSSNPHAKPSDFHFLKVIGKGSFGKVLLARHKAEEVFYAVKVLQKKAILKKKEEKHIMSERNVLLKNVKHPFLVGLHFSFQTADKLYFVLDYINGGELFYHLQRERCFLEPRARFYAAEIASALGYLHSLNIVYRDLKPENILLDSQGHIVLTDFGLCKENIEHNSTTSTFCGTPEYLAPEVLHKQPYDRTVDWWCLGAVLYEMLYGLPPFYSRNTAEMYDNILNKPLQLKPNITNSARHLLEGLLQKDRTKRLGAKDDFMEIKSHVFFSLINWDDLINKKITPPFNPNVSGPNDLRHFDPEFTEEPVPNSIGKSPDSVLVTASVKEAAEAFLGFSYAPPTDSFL

Compound: COC[C@H]1OC(=O)c2coc3c2[C@@]1(C)C1=C(C3=O)[C@@H]2CCC(=O)[C@@]2(C)C[C@H]1OC(C)=O [wortmannin]
- phosphorylation levels of PDK1 (serine-241) (PDK1): inhibited
- serum-induced SGK kinase activity (SGK): attenuated
